Data taken from publication PMC3890302.
Results are given in words; binding and its absence hold for the method and conditions named. In cells and extracts the contact can be indirect. For some assays here: Binding can be weak; no strength is given. For some assays here: Where a sequence is shown, tags or fusion partners need not be part of it.

The chains behind the UniProt entries cited, without tags or fusion partners. Where a name states a change or a piece, a line headed by the entry shows the natural chain unless it says otherwise.
UniProt Q9AJ30: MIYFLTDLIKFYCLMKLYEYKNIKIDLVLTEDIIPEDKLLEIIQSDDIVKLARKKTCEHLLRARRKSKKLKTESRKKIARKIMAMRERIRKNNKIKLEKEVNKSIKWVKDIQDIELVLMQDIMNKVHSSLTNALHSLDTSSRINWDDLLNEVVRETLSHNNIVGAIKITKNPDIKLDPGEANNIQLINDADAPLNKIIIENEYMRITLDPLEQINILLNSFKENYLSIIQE
UniProt Q7DB80: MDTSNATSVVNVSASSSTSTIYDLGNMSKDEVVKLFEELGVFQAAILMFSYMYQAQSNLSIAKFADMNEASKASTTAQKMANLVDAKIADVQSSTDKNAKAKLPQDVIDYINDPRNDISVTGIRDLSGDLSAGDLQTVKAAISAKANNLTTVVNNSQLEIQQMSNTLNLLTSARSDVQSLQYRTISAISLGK

How the values were obtained:
His×6-tagged YgfZ = biological target: T1, His×6-tagged YgfZ (UniProt P0ADE8); assay: pull-down; only the target purified
T1 sequence: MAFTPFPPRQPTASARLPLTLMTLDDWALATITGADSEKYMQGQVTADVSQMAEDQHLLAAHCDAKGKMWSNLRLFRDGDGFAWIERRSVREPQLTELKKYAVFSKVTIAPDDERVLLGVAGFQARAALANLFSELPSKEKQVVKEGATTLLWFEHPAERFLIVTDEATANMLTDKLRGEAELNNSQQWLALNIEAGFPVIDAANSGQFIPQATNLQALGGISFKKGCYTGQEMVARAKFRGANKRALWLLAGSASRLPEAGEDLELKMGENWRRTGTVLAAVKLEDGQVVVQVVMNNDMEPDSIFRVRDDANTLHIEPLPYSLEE

[1] = biological target: His×6-tagged EscL (enterohemorrhagic E. coli O157:H7) (UniProt Q9AJ30); assay: pull-down; only the target purified

Substance | binding (His×6-tagged YgfZ) | binding [1]
tag-free EscA | no binding | 
tag-free EspA (from UniProt Q7DB80) |  | binds
